Data published in article doi:10.1101/2023.06.05.543739.
Results are given in words; binding and its absence hold for the method and conditions named. For some assays here: Binding seen in cells or lysates may run through a third protein. Some binding calls cover weakened binding; strength is not graded here. For some assays here: Tags and fused reporters may be left off the sequences shown.

The chains behind the UniProt entries cited, without tags or fusion partners. Where a name states a change or a piece, a line headed by the entry shows the natural chain unless it says otherwise. Residues count along the entry.
UniProt O35973, whole entry: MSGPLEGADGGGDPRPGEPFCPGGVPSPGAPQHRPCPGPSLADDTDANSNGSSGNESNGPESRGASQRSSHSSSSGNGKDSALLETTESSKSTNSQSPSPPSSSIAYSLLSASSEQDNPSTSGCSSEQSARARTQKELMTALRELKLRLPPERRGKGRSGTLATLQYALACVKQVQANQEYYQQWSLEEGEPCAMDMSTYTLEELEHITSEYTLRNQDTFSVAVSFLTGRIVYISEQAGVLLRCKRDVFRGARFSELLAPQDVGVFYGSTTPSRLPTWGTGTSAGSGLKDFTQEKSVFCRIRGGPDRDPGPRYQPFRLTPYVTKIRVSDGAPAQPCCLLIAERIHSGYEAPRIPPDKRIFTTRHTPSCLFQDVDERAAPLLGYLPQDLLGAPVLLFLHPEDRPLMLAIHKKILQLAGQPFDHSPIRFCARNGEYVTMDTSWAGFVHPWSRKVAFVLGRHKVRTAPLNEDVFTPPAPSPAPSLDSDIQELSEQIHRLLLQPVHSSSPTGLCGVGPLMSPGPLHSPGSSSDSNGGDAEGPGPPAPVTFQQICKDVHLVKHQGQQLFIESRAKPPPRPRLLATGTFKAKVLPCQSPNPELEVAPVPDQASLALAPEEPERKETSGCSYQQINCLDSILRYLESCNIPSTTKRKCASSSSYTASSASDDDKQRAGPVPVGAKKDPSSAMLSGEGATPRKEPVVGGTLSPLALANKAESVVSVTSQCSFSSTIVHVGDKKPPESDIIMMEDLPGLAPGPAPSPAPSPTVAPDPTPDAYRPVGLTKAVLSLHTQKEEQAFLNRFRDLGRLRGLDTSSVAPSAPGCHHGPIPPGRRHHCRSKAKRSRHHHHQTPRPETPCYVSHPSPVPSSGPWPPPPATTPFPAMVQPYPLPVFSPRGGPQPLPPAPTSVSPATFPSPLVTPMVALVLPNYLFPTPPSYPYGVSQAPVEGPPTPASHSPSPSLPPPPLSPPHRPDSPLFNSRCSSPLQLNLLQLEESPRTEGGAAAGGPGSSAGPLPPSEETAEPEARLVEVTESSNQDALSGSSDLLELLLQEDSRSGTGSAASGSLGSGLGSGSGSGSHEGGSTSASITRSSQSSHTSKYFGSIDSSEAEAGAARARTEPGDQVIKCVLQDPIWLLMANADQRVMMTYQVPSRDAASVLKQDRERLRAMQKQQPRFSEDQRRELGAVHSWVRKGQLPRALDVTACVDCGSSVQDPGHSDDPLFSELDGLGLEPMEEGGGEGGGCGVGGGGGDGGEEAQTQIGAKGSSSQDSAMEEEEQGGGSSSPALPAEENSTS
UniProt O35973, 1013-1291: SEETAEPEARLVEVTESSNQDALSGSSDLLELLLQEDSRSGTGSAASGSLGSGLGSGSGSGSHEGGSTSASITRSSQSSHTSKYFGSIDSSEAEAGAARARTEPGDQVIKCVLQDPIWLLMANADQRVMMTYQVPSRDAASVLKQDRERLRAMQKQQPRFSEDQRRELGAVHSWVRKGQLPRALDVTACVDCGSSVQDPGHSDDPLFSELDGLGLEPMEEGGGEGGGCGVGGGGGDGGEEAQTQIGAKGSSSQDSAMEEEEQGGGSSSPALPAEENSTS

Key:
V5-tagged CRY1 = target: T1, V5-tagged CRY1 (UniProt P97784); test: co-IP
T1 sequence: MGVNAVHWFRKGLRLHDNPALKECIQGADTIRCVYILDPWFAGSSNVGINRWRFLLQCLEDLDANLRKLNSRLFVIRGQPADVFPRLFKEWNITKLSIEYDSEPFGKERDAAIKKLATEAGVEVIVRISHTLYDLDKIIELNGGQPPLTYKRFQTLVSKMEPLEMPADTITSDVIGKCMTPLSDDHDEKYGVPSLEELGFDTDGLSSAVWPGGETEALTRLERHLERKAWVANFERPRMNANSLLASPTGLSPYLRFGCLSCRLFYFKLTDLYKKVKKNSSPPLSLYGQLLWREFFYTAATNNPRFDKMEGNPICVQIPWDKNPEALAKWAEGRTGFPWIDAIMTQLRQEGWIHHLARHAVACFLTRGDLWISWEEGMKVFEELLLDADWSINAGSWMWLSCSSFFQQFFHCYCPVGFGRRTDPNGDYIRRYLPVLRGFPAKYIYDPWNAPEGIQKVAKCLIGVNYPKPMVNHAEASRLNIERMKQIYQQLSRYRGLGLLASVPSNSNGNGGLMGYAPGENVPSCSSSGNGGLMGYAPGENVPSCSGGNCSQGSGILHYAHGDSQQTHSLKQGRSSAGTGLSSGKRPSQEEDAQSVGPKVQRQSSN

CRY2-PHR (1-512) = target: T2, CRY2-PHR (1-512) (UniProt Q9R194); test: SEC
T2 sequence: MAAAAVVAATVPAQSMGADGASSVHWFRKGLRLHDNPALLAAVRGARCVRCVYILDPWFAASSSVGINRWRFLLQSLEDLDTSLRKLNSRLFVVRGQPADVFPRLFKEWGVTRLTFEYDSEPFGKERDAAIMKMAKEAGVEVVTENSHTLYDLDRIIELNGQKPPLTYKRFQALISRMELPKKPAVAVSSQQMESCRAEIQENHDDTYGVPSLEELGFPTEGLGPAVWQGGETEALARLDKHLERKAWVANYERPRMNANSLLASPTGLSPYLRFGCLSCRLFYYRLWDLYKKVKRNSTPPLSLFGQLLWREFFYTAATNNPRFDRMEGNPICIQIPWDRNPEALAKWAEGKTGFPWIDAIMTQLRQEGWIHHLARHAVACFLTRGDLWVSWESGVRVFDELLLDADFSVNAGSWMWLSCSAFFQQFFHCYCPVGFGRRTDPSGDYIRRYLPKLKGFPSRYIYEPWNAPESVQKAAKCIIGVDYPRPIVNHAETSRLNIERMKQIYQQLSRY

| Substance | binding (V5-tagged CRY1) | binding (CRY2-PHR (1-512)) |
| --- | --- | --- |
| Flag-tagged full-length PER1 (from UniProt O35973 1-1291) | binds | – |
| Flag-tagged full-length PER1 D1197A (from UniProt O35973 1-1291) | binds | – |
| PER1 1013-1291 (from UniProt O35973 1013-1291) (domain or fragment) | – | binds |
| Flag-tagged full-length PER1 R1111A D1197A (from UniProt O35973 1-1291) | binds | – |
| Flag-tagged full-length PER1 R1111A R1113A (from UniProt O35973 1-1291) | binds | – |
